From PMC4313699
These are yes or no findings as the source states them, for the method shown. In cells and extracts the contact can be indirect. Some entries that bind do so weakly or less than the wild type. Sequences can lack the tags named with a protein.

Sequences of proteins named here, by UniProt entry; tags and fusion partners are left off. A change or cut given only in a name is not applied to a line headed by its entry. A line that says so, or that is headed by a name, gives the form on record, which may keep a tag or linker. Residues count along the entry.
GluA1 (P19490, residues 19-907): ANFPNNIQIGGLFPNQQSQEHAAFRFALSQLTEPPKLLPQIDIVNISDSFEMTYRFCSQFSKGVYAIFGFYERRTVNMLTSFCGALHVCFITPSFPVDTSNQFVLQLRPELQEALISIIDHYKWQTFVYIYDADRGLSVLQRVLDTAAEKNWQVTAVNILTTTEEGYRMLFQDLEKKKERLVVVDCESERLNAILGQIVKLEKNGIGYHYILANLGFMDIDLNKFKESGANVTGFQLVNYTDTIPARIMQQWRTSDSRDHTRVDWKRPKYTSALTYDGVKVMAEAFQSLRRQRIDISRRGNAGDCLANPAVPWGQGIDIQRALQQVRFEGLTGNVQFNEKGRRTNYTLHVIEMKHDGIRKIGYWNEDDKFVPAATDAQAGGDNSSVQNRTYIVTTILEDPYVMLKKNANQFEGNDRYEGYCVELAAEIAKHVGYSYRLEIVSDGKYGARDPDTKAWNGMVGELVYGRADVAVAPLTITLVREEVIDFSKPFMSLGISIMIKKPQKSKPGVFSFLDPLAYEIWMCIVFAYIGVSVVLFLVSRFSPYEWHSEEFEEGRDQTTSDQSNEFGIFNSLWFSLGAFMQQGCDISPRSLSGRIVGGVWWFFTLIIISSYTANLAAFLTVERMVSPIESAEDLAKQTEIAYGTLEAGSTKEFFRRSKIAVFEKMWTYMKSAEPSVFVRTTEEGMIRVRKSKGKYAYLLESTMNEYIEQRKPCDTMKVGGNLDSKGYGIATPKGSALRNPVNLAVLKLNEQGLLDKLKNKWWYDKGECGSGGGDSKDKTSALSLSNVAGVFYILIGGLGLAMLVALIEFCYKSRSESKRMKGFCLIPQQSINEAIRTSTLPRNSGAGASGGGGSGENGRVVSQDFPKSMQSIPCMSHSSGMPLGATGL
GluA1(C585,811S) (P19490, form named): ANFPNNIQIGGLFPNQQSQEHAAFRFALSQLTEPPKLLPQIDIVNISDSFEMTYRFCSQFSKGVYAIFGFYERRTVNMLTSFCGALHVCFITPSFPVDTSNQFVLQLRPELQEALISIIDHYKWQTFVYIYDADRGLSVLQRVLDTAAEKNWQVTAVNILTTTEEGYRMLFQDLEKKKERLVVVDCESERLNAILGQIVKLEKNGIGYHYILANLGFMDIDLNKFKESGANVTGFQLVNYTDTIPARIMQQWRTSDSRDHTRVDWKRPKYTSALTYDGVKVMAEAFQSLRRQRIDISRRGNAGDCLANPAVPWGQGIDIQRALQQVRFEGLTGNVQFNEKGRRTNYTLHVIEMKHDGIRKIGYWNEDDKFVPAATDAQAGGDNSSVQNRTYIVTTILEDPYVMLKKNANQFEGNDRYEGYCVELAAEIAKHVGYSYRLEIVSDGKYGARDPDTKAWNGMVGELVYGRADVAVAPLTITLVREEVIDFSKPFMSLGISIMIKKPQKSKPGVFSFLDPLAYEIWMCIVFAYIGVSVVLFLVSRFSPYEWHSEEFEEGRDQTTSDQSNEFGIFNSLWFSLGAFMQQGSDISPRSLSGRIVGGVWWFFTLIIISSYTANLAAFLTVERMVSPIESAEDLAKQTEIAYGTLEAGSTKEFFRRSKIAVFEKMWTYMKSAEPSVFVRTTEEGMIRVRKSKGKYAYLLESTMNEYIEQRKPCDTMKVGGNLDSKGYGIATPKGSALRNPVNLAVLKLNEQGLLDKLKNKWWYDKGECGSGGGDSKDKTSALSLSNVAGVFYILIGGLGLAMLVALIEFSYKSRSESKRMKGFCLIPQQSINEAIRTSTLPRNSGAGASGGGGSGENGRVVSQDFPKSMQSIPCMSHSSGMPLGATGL
GluA1(C585S) (P19490, form named): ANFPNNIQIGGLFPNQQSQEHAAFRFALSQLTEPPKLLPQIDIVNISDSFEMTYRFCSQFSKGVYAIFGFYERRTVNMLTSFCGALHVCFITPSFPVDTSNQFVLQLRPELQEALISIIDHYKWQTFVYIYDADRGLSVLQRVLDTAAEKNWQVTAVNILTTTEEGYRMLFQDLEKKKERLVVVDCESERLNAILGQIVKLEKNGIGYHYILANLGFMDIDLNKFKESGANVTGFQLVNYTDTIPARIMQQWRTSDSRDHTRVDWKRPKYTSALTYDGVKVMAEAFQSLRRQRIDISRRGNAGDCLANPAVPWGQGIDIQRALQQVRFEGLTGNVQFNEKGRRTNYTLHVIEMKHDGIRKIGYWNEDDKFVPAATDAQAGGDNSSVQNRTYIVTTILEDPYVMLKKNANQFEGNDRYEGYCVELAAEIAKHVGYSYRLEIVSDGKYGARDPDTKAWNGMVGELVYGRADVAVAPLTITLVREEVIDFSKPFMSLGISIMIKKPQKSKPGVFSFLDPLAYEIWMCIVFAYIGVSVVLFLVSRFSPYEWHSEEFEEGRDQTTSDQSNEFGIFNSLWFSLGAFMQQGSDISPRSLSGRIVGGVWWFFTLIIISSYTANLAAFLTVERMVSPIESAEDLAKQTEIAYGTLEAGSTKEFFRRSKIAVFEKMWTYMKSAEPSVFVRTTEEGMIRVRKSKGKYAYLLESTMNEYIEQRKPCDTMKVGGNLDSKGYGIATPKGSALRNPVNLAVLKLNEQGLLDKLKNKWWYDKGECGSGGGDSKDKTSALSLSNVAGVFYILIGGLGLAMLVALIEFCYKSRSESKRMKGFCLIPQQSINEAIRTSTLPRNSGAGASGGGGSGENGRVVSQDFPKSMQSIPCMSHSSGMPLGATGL
GluA1(C811S) (P19490, form named): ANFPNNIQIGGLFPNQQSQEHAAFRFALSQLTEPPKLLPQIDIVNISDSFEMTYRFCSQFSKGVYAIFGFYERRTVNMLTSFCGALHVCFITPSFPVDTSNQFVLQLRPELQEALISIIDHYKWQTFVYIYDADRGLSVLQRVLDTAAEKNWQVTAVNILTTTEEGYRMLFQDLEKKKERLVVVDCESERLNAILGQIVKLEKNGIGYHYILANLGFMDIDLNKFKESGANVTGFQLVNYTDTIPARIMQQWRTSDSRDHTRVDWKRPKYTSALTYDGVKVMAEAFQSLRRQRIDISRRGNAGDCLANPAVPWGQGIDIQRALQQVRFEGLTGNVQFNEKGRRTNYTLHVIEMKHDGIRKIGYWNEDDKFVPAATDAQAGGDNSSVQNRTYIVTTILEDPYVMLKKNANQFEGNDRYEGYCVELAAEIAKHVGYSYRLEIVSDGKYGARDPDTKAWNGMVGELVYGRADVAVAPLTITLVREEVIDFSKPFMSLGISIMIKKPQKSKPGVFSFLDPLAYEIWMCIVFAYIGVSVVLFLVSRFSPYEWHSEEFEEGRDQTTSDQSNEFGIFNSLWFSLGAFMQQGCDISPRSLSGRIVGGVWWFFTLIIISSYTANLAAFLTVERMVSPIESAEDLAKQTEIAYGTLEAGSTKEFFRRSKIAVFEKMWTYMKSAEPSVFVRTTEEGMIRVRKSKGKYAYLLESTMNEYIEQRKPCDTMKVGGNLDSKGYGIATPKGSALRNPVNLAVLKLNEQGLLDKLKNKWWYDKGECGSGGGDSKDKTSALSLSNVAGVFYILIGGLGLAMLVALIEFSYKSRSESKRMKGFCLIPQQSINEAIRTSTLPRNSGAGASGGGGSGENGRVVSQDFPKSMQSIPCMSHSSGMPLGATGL
UniProt P19491, residues 22-883: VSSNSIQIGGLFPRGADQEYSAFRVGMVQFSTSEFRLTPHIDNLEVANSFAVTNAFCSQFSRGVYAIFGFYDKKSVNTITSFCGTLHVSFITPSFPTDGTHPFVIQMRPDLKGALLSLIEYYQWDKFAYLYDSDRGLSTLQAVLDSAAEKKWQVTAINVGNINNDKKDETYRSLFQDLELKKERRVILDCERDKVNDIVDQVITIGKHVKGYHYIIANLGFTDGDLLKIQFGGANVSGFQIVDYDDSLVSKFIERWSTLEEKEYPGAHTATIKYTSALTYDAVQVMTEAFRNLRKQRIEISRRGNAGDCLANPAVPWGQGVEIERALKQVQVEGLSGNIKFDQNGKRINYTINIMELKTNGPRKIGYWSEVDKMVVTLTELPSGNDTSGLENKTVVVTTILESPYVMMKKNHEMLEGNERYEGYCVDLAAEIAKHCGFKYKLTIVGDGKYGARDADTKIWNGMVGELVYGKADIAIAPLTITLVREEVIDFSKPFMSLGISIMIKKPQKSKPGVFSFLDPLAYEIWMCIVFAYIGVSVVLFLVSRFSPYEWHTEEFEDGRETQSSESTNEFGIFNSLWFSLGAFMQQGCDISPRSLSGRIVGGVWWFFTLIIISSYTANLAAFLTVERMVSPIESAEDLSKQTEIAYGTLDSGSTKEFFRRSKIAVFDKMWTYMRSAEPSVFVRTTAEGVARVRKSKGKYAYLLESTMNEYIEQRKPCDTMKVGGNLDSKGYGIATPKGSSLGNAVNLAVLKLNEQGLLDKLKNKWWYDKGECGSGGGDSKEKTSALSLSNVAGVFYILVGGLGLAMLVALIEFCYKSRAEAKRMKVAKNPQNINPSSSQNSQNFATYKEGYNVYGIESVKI

T1: CPT1C-GFP (carnitine palmitoyltransferase 1C, C-terminally tagged with EGFP) (rat) (UniProt F1LN46)
T1 sequence: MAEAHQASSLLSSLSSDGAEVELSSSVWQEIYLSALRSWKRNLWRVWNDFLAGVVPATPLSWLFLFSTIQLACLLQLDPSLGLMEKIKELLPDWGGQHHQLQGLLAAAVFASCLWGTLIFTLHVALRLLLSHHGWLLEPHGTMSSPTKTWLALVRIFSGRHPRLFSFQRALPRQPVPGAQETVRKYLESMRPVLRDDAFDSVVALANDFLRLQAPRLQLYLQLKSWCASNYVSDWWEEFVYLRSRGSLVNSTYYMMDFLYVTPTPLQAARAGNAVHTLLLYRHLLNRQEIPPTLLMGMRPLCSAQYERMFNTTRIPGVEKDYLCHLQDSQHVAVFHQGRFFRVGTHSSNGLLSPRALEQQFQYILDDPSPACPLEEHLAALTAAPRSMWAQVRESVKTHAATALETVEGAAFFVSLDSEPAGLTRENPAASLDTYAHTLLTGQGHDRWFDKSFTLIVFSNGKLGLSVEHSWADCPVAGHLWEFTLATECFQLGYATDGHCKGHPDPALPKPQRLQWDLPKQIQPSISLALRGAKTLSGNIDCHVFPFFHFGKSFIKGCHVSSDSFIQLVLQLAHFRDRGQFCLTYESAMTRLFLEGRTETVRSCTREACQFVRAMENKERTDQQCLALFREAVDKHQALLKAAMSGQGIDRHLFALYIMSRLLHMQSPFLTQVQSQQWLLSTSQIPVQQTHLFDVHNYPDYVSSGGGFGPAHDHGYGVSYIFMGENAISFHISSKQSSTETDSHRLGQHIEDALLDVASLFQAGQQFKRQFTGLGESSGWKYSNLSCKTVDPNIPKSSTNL


Legend:
Assay in all cases: co-IP; membrane fraction of co-transfected tsA201 cells solubilised in 1 % Triton X-100, 150 mM NaCl, 50 mM Tris-HCl pH 8; 200-400 ug protein with 4 ug antibody (anti-GFP, anti-GluA1-NT or anti-GluA2) overnight at 4 C, Protein-A sepharose, three washes, Western blot
[1] = molecular target: T1, CPT1C-GFP (carnitine palmitoyltransferase 1C, C-terminally tagged with EGFP) (rat)
[2] = molecular target: GluA1 (rat) (UniProt P19490)
[3] = molecular target: GluA2 (rat) (UniProt P19491)

Molecule | binding [1] | binding [2] | binding [3]
GluA1 (from UniProt P19490 19-907) (receptor) | binds |  | 
GluA1(C585,811S) (from UniProt P19490 19-907) (receptor) | binds |  | 
GluA1(C585S) (from UniProt P19490 19-907) (receptor) | binds |  | 
GluA1(C811S) (from UniProt P19490 19-907) (receptor) | binds |  | 
GluA2 (from UniProt P19491 22-883) (receptor) | binds |  | 
CPT1C-GFP (carnitine palmitoyltransferase 1C, C-terminally tagged with EGFP) (protein, UniProt F1LN46 1-801) MAEAHQASSLLSSLSSDGAEVELSSSVWQEIYLSALRSWKRNLWRVWNDFLAGVVPATPLSWLFLFSTIQLACLLQLDPSLGLMEKIKELLPDWGGQHHQLQGLLAAAVFASCLWGTLIFTLHVALRLLLSHHGWLLEPHGTMSSPTKTWLALVRIFSGRHPRLFSFQRALPRQPVPGAQETVRKYLESMRPVLRDDAFDSVVALANDFLRLQAPRLQLYLQLKSWCASNYVSDWWEEFVYLRSRGSLVNSTYYMMDFLYVTPTPLQAARAGNAVHTLLLYRHLLNRQEIPPTLLMGMRPLCSAQYERMFNTTRIPGVEKDYLCHLQDSQHVAVFHQGRFFRVGTHSSNGLLSPRALEQQFQYILDDPSPACPLEEHLAALTAAPRSMWAQVRESVKTHAATALETVEGAAFFVSLDSEPAGLTRENPAASLDTYAHTLLTGQGHDRWFDKSFTLIVFSNGKLGLSVEHSWADCPVAGHLWEFTLATECFQLGYATDGHCKGHPDPALPKPQRLQWDLPKQIQPSISLALRGAKTLSGNIDCHVFPFFHFGKSFIKGCHVSSDSFIQLVLQLAHFRDRGQFCLTYESAMTRLFLEGRTETVRSCTREACQFVRAMENKERTDQQCLALFREAVDKHQALLKAAMSGQGIDRHLFALYIMSRLLHMQSPFLTQVQSQQWLLSTSQIPVQQTHLFDVHNYPDYVSSGGGFGPAHDHGYGVSYIFMGENAISFHISSKQSSTETDSHRLGQHIEDALLDVASLFQAGQQFKRQFTGLGESSGWKYSNLSCKTVDPNIPKSSTNL |  | binds | binds
